Source: PubChem BioAssay AID256 (DTP/NCI, 2004)
The list shows only some results of the screen, not a fair sample: it gathers tests that were run many times, whatever their T/C, doses with no T/C, and many T/C values between a quarter and a half above the control. Other doses and runs of a compound stand elsewhere. T/C is the treated group as % of the vehicle group. Some doses have a count of surviving animals in place of a T/C: the source holds a T/C of zero for them, seemingly a mark for toxic or unscored doses. Some survivor counts are full or nearly so, which does not show that the dose was tolerated: survival well below the control is almost never listed, so the zero probably covers shortened survival too. Survivors were counted at the toxicity check, usually on the fifth day, unless a day is given; later deaths do not show. Schedule codes are those of the source, taken here to give the interval after Q, in days (D) or hours (H), and the number of doses after X. For survival time, the PubChem record calls one and a half times the control and up active, and a quarter to a half above the control has no call in these data; cut-offs in other NCI protocols can differ. Some entries were tested several times; the results are listed from low to high.

Test system: CD2F1 mice, L1210 leukemia ip, survival T/C
Test: NCI In Vivo Anticancer Drug Screen. Data for tumor model L1210 Leukemia (intraperitoneal) in CD2F1 (CDF1) mice
Conditions: higher T/C = longer survival
Summary of the method: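 Compound-dosed mice with transplantable tumor versus matched vehicle controls; endpoint ratio T/C reported.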

[1] = T/C endpoint: mean survival time, dose: 400.0 mg/kg/injection, schedule: Q04DX003 (ip), vehicle: saline with Tween-80
[2] = T/C endpoint: mean survival time, dose: 100.0 mg/kg/injection, schedule: Q04DX003 (ip), vehicle: saline with Tween-80
[3] = T/C endpoint: mean survival time, dose: 200.0 mg/kg/injection, schedule: Q04DX003 (ip), vehicle: saline with Tween-80
[4] = T/C endpoint: mean survival time, dose: 400.0 mg/kg/injection, schedule: Q01DX009 (ip), vehicle: saline with Tween-80
[5] = T/C endpoint: mean survival time, dose: 200.0 mg/kg/injection, schedule: Q01DX009 (ip), vehicle: saline with Tween-80

Cc1nnnn1C12CC3CC(CC(C3)C1)C2
survivor count (T/C endpoint: mean survival time, dose: 18.8 mg/kg/injection, schedule: Q01DX009 (ip), vehicle: saline with Tween-80): 6 of 6
survivor count (T/C endpoint: mean survival time, dose: 37.5 mg/kg/injection, schedule: Q01DX009 (ip), vehicle: saline with Tween-80): 2 of 6

CO[C@@]12[C@@H]3N[C@@H]3CN1C1=C(C(=O)C(NCCc3ccccn3)=C(C)C1=O)[C@@H]2COC(N)=O
T/C (T/C endpoint: median survival time, dose: 25.0 mg/kg/injection, schedule: Q01DX001 (ip), vehicle: saline with Tween-80): 142 % of control
survivor count (T/C endpoint: median survival time, dose: 50.0 mg/kg/injection, schedule: Q01DX005 (ip), vehicle: saline with Tween-80): 1 of 6
survivor count (T/C endpoint: median survival time, dose: 138.89 mg/kg/injection, schedule: Q01DX001 (ip), vehicle: saline with Tween-80): 3 of 6
T/C (T/C endpoint: median survival time, dose: 6250.0 micrograms/kg/injection, schedule: Q01DX001 (ip), vehicle: saline with Tween-80): 126 % of control
T/C (T/C endpoint: median survival time, dose: 12500.0 micrograms/kg/injection, schedule: Q01DX001 (ip), vehicle: saline with Tween-80): 143 % of control

Nc1c[n+]([O-])cc2ccccc12
survivor count [1]: 0 of 6

O=[N+]([O-])c1cc([N+](=O)[O-])c(Cl)s1
survivor count [2]: 5 of 6
survivor count [3]: 0 of 6
survivor count [1]: 0 of 6

C=CCOc1c(C)cc(C)cc1/C=C/C
survivor count [4]: 1 of 6

CCn1c(C)nc2cc(C(N)=O)ccc21
survivor count [4]: 0 of 6

O=NN1CC2CCC1CC2
survivor count (T/C endpoint: mean survival time, dose: 20.0 mg/kg/injection, schedule: Q01DX001 (ip), vehicle: saline with Tween-80): 2 of 6

COC(=O)C(Cc1ccc(N(CCCl)CCCl)cc1)N=NNc1nc[nH]c1C(N)=O (stereo not given)
T/C (T/C endpoint: mean survival time, dose: 200.0 mg/kg/injection, schedule: Q01DX001 (ip), vehicle: steroid suspending solution): 127 % of control

[CH3][Sn]([CH3])([Br])[CH2]CCBr
survivor count (T/C endpoint: mean survival time, dose: 1.56 mg/kg/injection, schedule: Q01DX009 (ip), vehicle: saline with Tween-80): 1 of 3
survivor count (T/C endpoint: mean survival time, dose: 3.12 mg/kg/injection, schedule: Q01DX009 (ip), vehicle: saline): 0 of 3
survivor count (T/C endpoint: mean survival time, dose: 6.25 mg/kg/injection, schedule: Q01DX009 (ip), vehicle: saline): 0 of 3
survivor count (T/C endpoint: mean survival time, dose: 12.5 mg/kg/injection, schedule: Q01DX009 (ip), vehicle: saline): 0 of 3

C=CS(=O)CCCCCCC (stereo not given)
survivor count (T/C endpoint: mean survival time, dose: 100.0 mg/kg/injection, schedule: Q04DX002 (ip), vehicle: saline): 0 of 3
survivor count (T/C endpoint: mean survival time, dose: 200.0 mg/kg/injection, schedule: Q04DX002 (ip), vehicle: saline): 2 of 3
survivor count (T/C endpoint: mean survival time, dose: 400.0 mg/kg/injection, schedule: Q04DX002 (ip), vehicle: saline): 0 of 3

C=CC1CC2C=CC1C2 (stereo not given) (tested in a mixture with another compound)
survivor count (T/C endpoint: mean survival time, dose: 322.0 mg/kg/injection, schedule: Q01DX009 (ip), vehicle: saline with Tween-80): 3 of 6

COc1cc([C@@H]2c3cc4c(cc3[C@@H](OC3OC5COC(C)OC5C(O)C3O)[C@H]3COC(=O)[C@H]23)OCO4)cc(OC)c1O (stereo not given in full)
T/C (T/C endpoint: mean survival time, dose: 0.25 mg/kg/injection, schedule: Q03HX024 (ip), vehicle: saline): 135 % of control
T/C (T/C endpoint: mean survival time, dose: 1.0 mg/kg/injection, schedule: Q01DX009 (ip), vehicle: saline): 137 % of control
survivor count (T/C endpoint: mean survival time, dose: 4.0 mg/kg/injection, schedule: Q03HX024 (ip), vehicle: saline): 9 of 10
T/C (T/C endpoint: mean survival time, dose: 4.0 mg/kg/injection, schedule: Q04DX003 (ip), vehicle: saline): 141 % of control
survivor count (T/C endpoint: mean survival time, dose: 64.0 mg/kg/injection, schedule: Q04DX003 (ip), vehicle: saline): 8 of 10
T/C (T/C endpoint: median survival time, dose: 8.0 mg/kg/injection, schedule: Q01DX009 (ip), vehicle: other): 143 % of control
survivor count (T/C endpoint: median survival time, dose: 8.0 mg/kg/injection, schedule: Q03HX016 (ip), vehicle: other): 6 of 10
T/C (T/C endpoint: median survival time, dose: 16.0 mg/kg/injection, schedule: Q01DX001 (sc), vehicle: other): 143 % of control
T/C (T/C endpoint: median survival time, dose: 16.0 mg/kg/injection, schedule: Q01DX009 (ip), vehicle: saline): 127 % of control
survivor count (T/C endpoint: median survival time, dose: 16.0 mg/kg/injection, schedule: Q03HX008 (ip), vehicle: other): 1 of 10
survivor count (T/C endpoint: median survival time, dose: 16.0 mg/kg/injection, schedule: Q03HX016 (ip), vehicle: other): 1 of 10
survivor count (T/C endpoint: median survival time, dose: 16.0 mg/kg/injection, schedule: Q03HX024 (ip), vehicle: other): 3 of 10
survivor count (T/C endpoint: median survival time, dose: 32.0 mg/kg/injection, schedule: Q03HX008 (ip), vehicle: other): 3 of 10
survivor count (T/C endpoint: median survival time, dose: 32.0 mg/kg/injection, schedule: Q03HX024 (oral), vehicle: Klucel (hydroxypropylcellulose) (HPC)): 10 of 10
T/C (T/C endpoint: median survival time, dose: 64.0 mg/kg/injection, schedule: Q01DX009 (oral), vehicle: Klucel (hydroxypropylcellulose) (HPC)): 133 % of control
T/C (T/C endpoint: median survival time, dose: 64.0 mg/kg/injection, schedule: Q03HX016 (oral), vehicle: Klucel (hydroxypropylcellulose) (HPC)): 144 % of control
T/C (T/C endpoint: median survival time, dose: 128.0 mg/kg/injection, schedule: Q01DX001 (oral), vehicle: other): 125 and 137 % of control
T/C (T/C endpoint: median survival time, dose: 128.0 mg/kg/injection, schedule: Q01DX009 (oral), vehicle: Klucel (hydroxypropylcellulose) (HPC)): 133 % of control
T/C (T/C endpoint: median survival time, dose: 128.0 mg/kg/injection, schedule: Q01DX009 (oral), vehicle: other): 125 and 137 % of control
survivor count (T/C endpoint: median survival time, dose: 128.0 mg/kg/injection, schedule: Q03HX024 (oral), vehicle: Klucel (hydroxypropylcellulose) (HPC)): 10 of 10
survivor count (T/C endpoint: median survival time, dose: 256.0 mg/kg/injection, schedule: Q01DX001 (ip), vehicle: other): 1 of 10
T/C (T/C endpoint: median survival time, dose: 256.0 mg/kg/injection, schedule: Q01DX009 (oral), vehicle: other): 125 and 131 % of control
T/C (T/C endpoint: median survival time, dose: 512.0 mg/kg/injection, schedule: Q01DX001 (oral), vehicle: other): 137 % of control
T/C (T/C endpoint: median survival time, dose: 512.0 mg/kg/injection, schedule: Q04DX003 (oral), vehicle: Klucel (hydroxypropylcellulose) (HPC)): 127 % of control
T/C (T/C endpoint: median survival time, dose: 1024.0 mg/kg/injection, schedule: Q01DX001 (oral), vehicle: other): 137 % of control
T/C (T/C endpoint: median survival time, dose: 1024.0 mg/kg/injection, schedule: Q04DX003 (oral), vehicle: Klucel (hydroxypropylcellulose) (HPC)): 144 % of control

CC(CN=Cc1ccccc1[O-])N=Cc1ccccc1[O-].[O]=[V] (stereo not given)
survivor count [2]: 0 of 6
survivor count [3]: 0 of 6
survivor count [1]: 0 of 6

C=CCNc1nc2c(s1)CCc1cc(OC)c(OC)cc1-2
survivor count [4]: 3 of 6

CCOc1c[n+](C)c(C)s1
survivor count (T/C endpoint: mean survival time, dose: 400.0 mg/kg/injection, schedule: Q01DX001 (ip), vehicle: carboxymethylcellulose (CMC)): 0 of 4

CCNc1nc(NCC)nc(SC)n1
survivor count [5]: 3 of 6
survivor count [1]: 0 of 6

NC(CSC(c1ccccc1)(c1ccccc1)c1cccs1)C(=O)O (stereo not given)
survivor count (T/C endpoint: mean survival time, dose: 50.0 mg/kg/injection, schedule: Q01DX009 (ip), vehicle: saline): 6 of 6
survivor count (T/C endpoint: mean survival time, dose: 400.0 mg/kg/injection, schedule: Q01DX009 (ip), vehicle: saline): 6 of 6

O=C(O)CCSc1ccc2c(c1)CCCC2
survivor count (T/C endpoint: mean survival time, dose: 400.0 mg/kg/injection, schedule: Q01DX009 (ip), vehicle: Klucel (hydroxypropylcellulose) (HPC)): 3 of 6

CCN(CC)CCSCCSCCN(CC)CC
survivor count (T/C endpoint: mean survival time, dose: 400.0 mg/kg/injection, schedule: Q01DX001 (ip), vehicle: saline): 0 of 6

O=C(Nc1c(Cl)cccc1Cl)Oc1ccc(Br)cc1
survivor count [5]: 3 of 3

CCCCCCCCCCCCCCCC(=O)N(C/C=C/CN(C(=O)CCCCCCCCCCCCCCC)C(C)CCCN(CC)CC)C(C)CCCN(CC)CC (stereo not given)
survivor count (T/C endpoint: mean survival time, dose: 50.0 mg/kg/injection, schedule: Q01DX009 (ip), vehicle: other): 1 of 6
survivor count (T/C endpoint: mean survival time, dose: 100.0 mg/kg/injection, schedule: Q01DX009 (ip), vehicle: other): 0 of 6
survivor count (T/C endpoint: mean survival time, dose: 200.0 mg/kg/injection, schedule: Q01DX009 (ip), vehicle: other): 0 of 6

CC[N+](C)(CC)CCCOC(=O)c1ccccc1Oc1ccc(C)cc1
survivor count (T/C endpoint: mean survival time, dose: 100.0 mg/kg/injection, schedule: Q01DX009 (ip), vehicle: saline): 0 of 6
survivor count (T/C endpoint: mean survival time, dose: 200.0 mg/kg/injection, schedule: Q01DX009 (ip), vehicle: saline): 0 of 6

O=C1CCCC[CH]1[Hg][Cl] (stereo not given)
survivor count (T/C endpoint: mean survival time, dose: 5.0 mg/kg/injection, schedule: Q01DX009 (ip), vehicle: saline): 1 of 6

COCC(O)CN1CCN(c2ccccc2C)CC1 (stereo not given)
survivor count [3]: 1 of 6
survivor count [1]: 0 of 6

N#CCOc1cccc([N+](=O)[O-])c1
survivor count [1]: 2 of 6
